Laboratory results: PubChem BioAssay AID1671195 (Yale University, 2021)
In all, the deposit lists about 22,000 reagents; this is an unselected part. In the full data, about 1,510 (6.9%) are marked active. 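Active includes knockdowns raising or lowering LDL uptake; positive z-scores mean more uptake, negative mean less.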 A number with no mark means an inactive call.

- Screen: 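Regulators of LDL receptor activity judged by labelled LDL uptake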 (primary screen)
- System: human Huh7 hepatoma cells
- Reagent: siRNA pool against human genes, 18 nM
- Duration: about 2 to 2.5 days of knockdown, then 8 h LDL uptake
- Conditions: DiI-labelled LDL at 30 µg/ml for 8 h, in lipoprotein-deficient serum medium
- Read-out: 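Fluorescent LDL signal imaged in cells, scaled to the plate median, robust z-score for each replicate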
- Direction: robust z-score: higher = more LDL uptake after knockdown
- Hit rule: 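a gene counts as active if at least two replicate z-scores exceed ±2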

gene symbol	robust z-score, replicate 1	robust z-score, replicate 2	robust z-score, replicate 3
LOC284788	-1.09	-1.46	-1.44
RHBG	0.633	-0.321	0.154
TAB1	-0.775	-0.893	-1.94
SMOC2	-0.77	-0.943	-1.36
GJA8	-0.193	-0.706	-0.308
SRD5A2	-0.211	-0.019	0.129
ROMO1	-0.0461	0.282	-0.111
CDC42EP4	-1.22	-1.46	-1.23
GABRG3	-0.327	-0.633	-0.61
PM20D2	-2.18	-1.14	-1.26
PLEKHG3	-1.16	-1.11	0.23
WDR17	0.64	-0.318	0.522
REST	-0.869	-0.553	-0.589
TMEM105	0.377	0.403	1.1
FLVCR1	0.238	-0.336	0.478
ISM2	-0.787	-1.14	-1.09
KLF1	-1.35	-1.32	-1.45
GTF2H5	-1.46	-0.827	-1.03
VSIG10L2	1.87 (active)	2.4	2.56
CTTNBP2NL	2.2 (active)	3.33	1.22
HNRNPF	-0.056	-0.493	-0.411
CTTN	-1.05	-1.51	-1.62
KLF2	0.0783	-0.00639	-0.162
FOXD2	0.201	0.419	0.731
VRK3	-0.364	-0.408	0.616
HLA-DRA	-1.3	0.176	-1.24
B4GALT5	-0.391	-0.13	-0.111
TNFRSF8	0.488	0.648	0.377
C20orf96	-0.71	-1.49	-0.0504
JAG1	1.4	2.66	0.32
SLC35B4	-0.0515	0.248	-0.143

Already shown: 11 of the entries above.
gene symbol	robust z-score, replicate 1	robust z-score, replicate 2	robust z-score, replicate 3
HNRNPF	-0.056	-0.493	-0.411
CTTN	-1.05	-1.51	-1.62
KLF2	0.0783	-0.00639	-0.162
FOXD2	0.201	0.419	0.731
VRK3	-0.364	-0.408	0.616
HLA-DRA	-1.3	0.176	-1.24
B4GALT5	-0.391	-0.13	-0.111
TNFRSF8	0.488	0.648	0.377
C20orf96	-0.71	-1.49	-0.0504
JAG1	1.4	2.66	0.32
SLC35B4	-0.0515	0.248	-0.143

Further results follow:
gene symbol	robust z-score, replicate 1	robust z-score, replicate 2	robust z-score, replicate 3
ZNF700	2.98 (active)	2.79	2
FBXO36	-0.34	0.123	0.322
PRDM5	-1.22	-1.06	-1.05
MYSM1	-0.582	-1.18	-0.154
RPL13	-1.67	-1.91	-1.36
LOC388652 (retired record)	0.717	0.745	0.0463
LOC399763 (retired record)	-0.47	-0.0391	-0.39
TIFA	0.59	-0.437	-0.262
HSPA4L	1.06	0.878	1.17
RFK	1.07	0.0726	1.74
ALDH1A2	-1.06	-0.452	-0.724
XPO5	-2.13	-1.37	-1.44
TRIB1	-0.392	-0.364	0.0641
OBSCN-AS1	1.24	1.57	1.4
ORAI2	0.451	0.21	-0.459
NRAS	1.88 (active)	2.73	2.27
PREB	-2.02 (active)	-2.47	-2.46
ZNF543	-2.37 (active)	-2.22	-2.49
PRELID1	-1.28	0.648	1.8
DIPK1C	0.448	0.342	0.162
LINC01521	-0.667	-0.00361	-1.39
PGAP4	1.31	1.55	0.989
ARL14	1.37	1.84	0.666
IGSF6	-0.374	0.0378	3.64
LOC400705 (retired record)	1.42 (active)	2.03	1.94
LOC148766 (retired record)	0.505	0.64	0.791
NEIL3	-0.601	-0.231	-0.221
DKKL1	-2.17	-0.894	-0.491
CD5	0.595	0.492	0.742
LOC441343 (retired record)	-0.846	-1.41	-0.878
DNAAF19	-0.571	-0.231	-0.25
HLA-DRB1	1.28	-0.633	0.751
CHGB	-1.05	-1.02	-0.518
EVX1	1.25	1.38	2.2
GLI1	-1.83	-1.42	-1.56
BICDL1	0.584	-0.739	-0.471
LOC286177	-1.05	-1.07	-1.23
MTM1	2.65 (active)	2.28	1.46
LINC00305	-0.257	-0.65	-0.457
LYPD6B	-0.99	-1.44	-1.8
PDCD7	0.688	0.72	-0.742
HAPLN4	-2.1 (active)	-1.62	-2.07
EPHB4	2.63 (active)	2.72	1.28
ANAPC7	-0.751	0.00552	-1.79
DUSP5	-0.422	-0.331	-0.705
NMRAL2P	-0.919	-0.879	-1.15
SLC9C1	0.227	0.789	0.702
DPYSL2	-0.335	-0.581	-0.355
BCAS2	-1.38	-0.646	2.3
ADAM29	4.42 (active)	3.47	4.05
ZNF765	0.553	0.472	0.761
GUCY2GP	-1.08	-0.808	-0.912
PLG	-1.46	-0.639	-1.18
SLC17A5	-1.07	-0.829	-0.752
OR8H3	-1.14	-0.933	-0.607
RO60	-0.309	0.233	0.554
